These are yes or no findings as the source states them, for the method shown. Binding seen in cells or lysates may run through a third protein. Some results given as binding are weak or reduced against the parent protein; the word gives no strength. Tags and fused reporters may be left off the sequences shown.
Tests used:
[1] = molecular target: T1, 3-ketoacyl-CoA thiolase (3-KAT), Myc-tagged (UniProt P13437); experiment: co-IP; Myc-tagged ACADL, 3-KAT or ATP5A immunoprecipitated with anti-Myc-Tag antibody (5 µg, overnight, 4 °C) from cardiomyocytes in 20 mM Tris pH 7.5, 150 mM NaCl, 1 mM EDTA, 1% Triton X-100, protein A/G agarose; blots for Epac1 and CaMKII; cells stimulated or not with 8-CPT-AM (10 µM, 30 min), preincubated or not with CE3F4 (20 µM) or KN-93 (5 µM); IgG as control for IP
T1 sequence: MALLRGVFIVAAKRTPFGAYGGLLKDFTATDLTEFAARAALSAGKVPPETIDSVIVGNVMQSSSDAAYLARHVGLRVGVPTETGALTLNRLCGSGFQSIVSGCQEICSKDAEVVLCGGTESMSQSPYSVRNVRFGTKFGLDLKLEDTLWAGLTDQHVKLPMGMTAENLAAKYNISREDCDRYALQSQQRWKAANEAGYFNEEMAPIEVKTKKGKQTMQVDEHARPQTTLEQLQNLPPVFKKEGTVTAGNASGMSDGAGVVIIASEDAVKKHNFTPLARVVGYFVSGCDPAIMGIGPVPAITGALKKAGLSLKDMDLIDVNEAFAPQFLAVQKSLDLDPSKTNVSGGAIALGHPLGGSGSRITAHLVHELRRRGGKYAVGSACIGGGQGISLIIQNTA

Chains of the proteins cited; added tags and fusions are not shown.
UniProt Q9Z1C8: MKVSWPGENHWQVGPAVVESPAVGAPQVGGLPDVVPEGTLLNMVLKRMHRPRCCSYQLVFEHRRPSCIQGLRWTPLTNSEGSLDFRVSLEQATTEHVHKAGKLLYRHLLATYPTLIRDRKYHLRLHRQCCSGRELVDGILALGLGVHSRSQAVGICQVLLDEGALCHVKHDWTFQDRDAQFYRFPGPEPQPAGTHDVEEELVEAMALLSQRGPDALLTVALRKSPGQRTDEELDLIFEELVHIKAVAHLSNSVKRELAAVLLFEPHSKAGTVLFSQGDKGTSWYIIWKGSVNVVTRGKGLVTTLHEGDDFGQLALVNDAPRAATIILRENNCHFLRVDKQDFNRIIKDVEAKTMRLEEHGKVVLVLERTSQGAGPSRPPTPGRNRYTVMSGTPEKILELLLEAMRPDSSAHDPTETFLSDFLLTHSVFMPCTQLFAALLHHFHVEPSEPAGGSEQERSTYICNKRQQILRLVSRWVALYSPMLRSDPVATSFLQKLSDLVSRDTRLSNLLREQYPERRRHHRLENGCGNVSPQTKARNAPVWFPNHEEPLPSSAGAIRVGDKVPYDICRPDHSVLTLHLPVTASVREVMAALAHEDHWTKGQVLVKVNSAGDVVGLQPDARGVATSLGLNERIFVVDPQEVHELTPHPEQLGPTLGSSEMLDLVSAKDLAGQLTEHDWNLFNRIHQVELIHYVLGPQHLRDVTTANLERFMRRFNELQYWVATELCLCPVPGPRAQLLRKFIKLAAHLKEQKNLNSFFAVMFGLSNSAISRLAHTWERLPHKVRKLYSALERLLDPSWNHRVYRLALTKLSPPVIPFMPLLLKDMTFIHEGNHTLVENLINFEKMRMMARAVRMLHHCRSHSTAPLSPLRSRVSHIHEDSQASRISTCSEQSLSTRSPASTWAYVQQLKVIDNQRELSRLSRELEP

[2] = molecular target: T2, long-chain fatty acid acyl-CoA dehydrogenase (ACADL), wild type, Myc-tagged (UniProt P15650); experiment: as above
T2 sequence: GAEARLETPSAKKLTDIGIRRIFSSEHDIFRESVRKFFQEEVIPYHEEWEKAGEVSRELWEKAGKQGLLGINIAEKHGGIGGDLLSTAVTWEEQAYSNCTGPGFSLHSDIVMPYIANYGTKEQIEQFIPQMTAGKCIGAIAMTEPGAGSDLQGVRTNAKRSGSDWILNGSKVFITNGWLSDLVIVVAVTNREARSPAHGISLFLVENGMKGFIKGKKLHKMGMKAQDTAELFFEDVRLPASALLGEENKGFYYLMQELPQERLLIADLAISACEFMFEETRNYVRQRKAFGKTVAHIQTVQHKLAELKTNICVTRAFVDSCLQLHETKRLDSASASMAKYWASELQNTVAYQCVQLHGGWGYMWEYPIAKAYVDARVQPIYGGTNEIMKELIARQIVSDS

Question: With “exchange protein directly activated by cyclic AMP 1 (Epac1) (from UniProt Q9Z1C8 1-926)” as the substance, how does the binding [1] read?
Answer: binds

Question: What about the binding [2] of the same substance?
Answer: binds

From article PMC8410846
